Common to all, as to type: cell-based
The test system of one test is Ba/F3(+IL‐3). Put plainly: CCK-8 proliferation assay in parental Ba/F3 cells. Conditions: Mus musculus, read-out: IC50 (μΜ) Ba/F3(+IL‐3). How it is done:
(§1) The Ba/F3 cell lines stably expressing FGFR1, FGFR1‐V561M, FGFR1‐V561F, FGFR1‐K656N, and FGFR1‐K656E were self‐established through electroporation pCDNA3.1‐TEL plasmids using the Amaxa Cell Line Nucleofector Kit V (Lonza, Cologne, Germany). Stable cell lines were selected by G418 (Merck, USA) and then withdrawal of IL‐3 (R&D). […] Parental Ba/F3 cells were maintained in RPMI 1640 supplemented with 10% FBS, 100 U/ml of penicillin, […] of streptomycin, and 10 ng/ml of IL‐3, while all Ba/F3 stable cell lines were cultured in the same medium without IL‐3.
(§2) Cells were seeded in 96‐well plate in complete medium (1000–6000 cells/well) and cultured for overnight. Then the cells were exposed to gradient concentrations (0.0005–10 μM) of compounds. Cell proliferation was analyzed by Cell Counting Kit 8 (CK04, Dojindo Laboratories, Japan) after co‐incubation for a further 72 h. IC50 values were calculated by fitting of concentration–response curves using GraphPad Prism 8.01 software. Each assay was repeated at least three times.
(§3) There is, however, no commercially available FGFR1 mutant kinase to validate this. Therefore, we constructed Ba/F3 model cells stably expressing FGFR1‐WT, K656E, K656N, V561M, and V561F mutations.
For orientation: Tetrazolium dyes change colour on reduction, which living cells bring about.

A further test has as its system Ba/F3‐FGFR1‐K656E. Kind of test: CCK-8 proliferation assay in Ba/F3 stable cells. The conditions noted are these: Mus musculus, BaF3, 72 h, read-out: IC50 (μΜ) Ba/F3‐FGFR1‐K656E. How it is done:
as §1, §2, §3

For the next test, the system named is Ba/F3‐FGFR1‐V561M. Kind of test: CCK-8 proliferation assay in Ba/F3 stable cells. Conditions: Mus musculus, BaF3, 72 h, read-out: IC50 (μΜ) Ba/F3‐FGFR1‐V561M. As for the experimental part: as §1, §2, §3
The subject of the next test is Ba/F3‐FGFR1‐K656N. Put plainly: CCK-8 proliferation assay in Ba/F3 stable cells. The conditions noted are these: Mus musculus, BaF3, 72 h, read-out: IC50 (μΜ) Ba/F3‐FGFR1‐K656N. As for the experimental part:
as §1, §2, §3

A further test has as its system Ba/F3‐FGFR1‐V561F. Kind of test: CCK-8 proliferation assay in Ba/F3 stable cells. The conditions noted are these: Mus musculus, BaF3, 72 h, read-out: IC50 (μΜ) Ba/F3‐FGFR1‐V561F. How it is done: as §1, §2, §3
A further test has as its system Ba/F3‐FGFR1. Kind of test: CCK-8 proliferation assay in Ba/F3 stable cells. The conditions noted are these: Mus musculus, BaF3, 72 h, read-out: IC50 (μΜ) Ba/F3‐FGFR1. As for the experimental part:
as §1, §2, §3

Test [1] deals with FGFR1 signal pathway in Ba/F3‐FGFR1‐V561M. Kind of test: Western blot of FGFR1 signal pathway. Conditions: 300 nM. As for the experimental part: (§4) Cells were treated with different concentrations of compound or DMSO for indicated time. Then, cells were lysed with 1 × SDS sample lysis buffer (recommended by CST). […] After blocking with 5% BSA in TBST solution (0.5% Tween‐20) at room temperature for 4 hrs, the membranes were incubated with the corresponding primary antibody (1:2000–1:200) at 4℃ overnight. After washing with TBST for 3–5 times, the HRP‐conjugated secondary antibodies were incubated for 2 hrs. The protein signals were detected with Amersham Imager 600 system (GE, Boston, MA, USA) using an ECL western blotting detection kit (Thermo Fisher Scientific, Waltham, MA, USA).
(§5) Cell lysates were separated by sodium dodecyl sulfate‐polyacrylamide gel electrophoresis (SDS‐PAGE) and analyzed by western blot for phosphorylated FGFR1, FGFR1, phosphorylated FRS2, FRS2, phosphorylated AKT (Ser473), AKT, phosphorylated Erk, and Erk. GAPDH was used as a control
Background: A western blot detects proteins with antibodies after separation by electrophoresis.

For test [2], the system named is FGFR1 signal pathway in Ba/F3‐FGFR1‐V561F. Put plainly: Western blot of FGFR1 signal pathway. Conditions: 300 nM. How it is done: as §4, §5

Where two headings read alike, the source gives them in different places. A value given as a limit tells only on which side of the number the result lay.

Results on two compounds are retold here after paper PMC8290231 (Cancer Medicine, 2021).

In the case of `COc1cc(OC)cc(N(CCNC(C)C)c2ccc3ncc(-c4cnn(C)c4)nc3c2)c1` [Erdafitinib], in the test with Ba/F3(+IL‐3) (BaF3, parental cells with IL-3, CCK-8, 72 h), the IC50 is 3400 ± 32 nM.
With `C=CC(=O)N1CC[C@H](n2nc(C#Cc3cc(OC)cc(OC)c3)c3c(N)ncnc32)C1` [TAS120], the IC50 in the test on Ba/F3(+IL‐3) (BaF3, 72 h) is above 10000 nM; in the test on Ba/F3‐FGFR1‐K656E, 17 ± 2.2 nM; with Ba/F3‐FGFR1‐V561M, 1460 ± 120 nM; in the test on Ba/F3‐FGFR1‐K656N, 10 ± 2.2 nM; in the test on Ba/F3‐FGFR1‐V561F it was 1000 ± 67 nM; in the test on Ba/F3‐FGFR1 it was 6.8 ± 0.6 nM. Moreover, the “activation of FGFR1 and its signal pathway” value in test [1] and in test [2] was “no effects” throughout.
